Experimental data published in patent US7026281B1 (The Administrators of the Tulane Educational Fund, priority 1998, dated 2006).

Columns and labels:
[1] = general procedure: Boc solid-phase peptide synthesis; MBHA; DIC; preformed HOBt esters for Boc-Asn-OH and Boc-Gln-OH; conditions: whole synthesis
[2] = general procedure: Boc solid-phase peptide synthesis; MBHA resin (Bachem); DIC; preformed HOBt esters for Boc-Asn-OH and Boc-Gln-OH; conditions: whole synthesis, 220 and 280 nm, scale of the general procedure 0.50 mmole, 0.070 mmole

Substance | crude mass ([1]; scale 0.50 mmol) | final HPLC purity [2] | crude mass ([1]; scale 0.070 mmol)
[PhAc^0, D-Arg^2, Phe(pCl)^6, Arg^9, Abu^15, Nle^27, D-Arg^28, Har^29]hGH-RH(1–29)NH2 | 1.51 g | >95% | 
[PhAc^0, D-Arg^2, Phe(pCl)^6, Har^9, Tyr(Me)^10, Abu^15, Nle^27, D-Arg^28, Har^29]hGH-RH(1–29)NH2 |  | >95% | 0.112 g
